Source: doi:10.1101/2024.09.03.610971
These are yes or no findings as the source states them, for the method shown. Some entries that bind do so weakly or less than the wild type. Tags and fused reporters may be left off the sequences shown.

Target: T1, mouse CDC45, yeast two-hybrid fusion (mouse) (UniProt Q9Z1X9)
T1 sequence: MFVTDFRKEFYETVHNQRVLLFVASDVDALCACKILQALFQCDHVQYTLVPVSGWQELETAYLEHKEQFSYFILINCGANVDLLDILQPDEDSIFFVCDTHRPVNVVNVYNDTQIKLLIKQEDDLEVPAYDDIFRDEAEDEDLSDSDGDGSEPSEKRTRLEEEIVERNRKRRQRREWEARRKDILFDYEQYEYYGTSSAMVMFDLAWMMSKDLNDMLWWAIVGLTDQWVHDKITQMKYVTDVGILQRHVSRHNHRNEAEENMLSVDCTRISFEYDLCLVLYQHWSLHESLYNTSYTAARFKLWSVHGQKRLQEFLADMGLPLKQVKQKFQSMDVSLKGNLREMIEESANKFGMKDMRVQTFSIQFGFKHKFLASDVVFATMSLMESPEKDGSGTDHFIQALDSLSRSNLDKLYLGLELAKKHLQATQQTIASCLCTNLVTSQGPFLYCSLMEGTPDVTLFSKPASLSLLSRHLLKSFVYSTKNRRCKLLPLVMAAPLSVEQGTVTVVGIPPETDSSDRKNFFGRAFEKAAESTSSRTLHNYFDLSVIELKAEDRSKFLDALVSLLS
Assay: two-hybrid

binding: binds
B1: USP37 1-119 (USP37-PH domain), yeast two-hybrid fusion (domain or fragment, UniProt Q8C0R0 1-119)
chain: MSPLKIYGPIRIRSMQTGITKWKEGSFEIVEKDNRVSLLVHYNTGGIPRVFQLSHNIKNVVLRPSGIKQSRLMLTLQDNSFLSIDKVPSKDAEEMRLFLDAVHQNRLHAAMKASQGSGS
